This test concerns primary NK cells. The experiment in a line: Confocal imaging of primary NK cells exposed to PIKfyve inhibitors (LAMP-1 / granzyme B staining). In kind it is cell-based, human. As to conditions: 1 μM overnight, LAMP-1 staining, FIG. 10. The protocol:
Sorted NK cells were prepared for confocal microscopy using fixation/permeabilization (BD Bioscience Cytofix/Cytoperm) prior to intracellular staining with mouse anti-human granzyme B-A647 (GB11), rabbit anti-human pericentrin (Ab4448) followed by Donkey anti-Rabbit IgG Alexa555 and donkey anti-mouse-A568. After staining, the fixed cells were adhered to glass cover slips using Cell Tak (Corning) and mounted using Pro-long Gold Antifade with DAPI. The cells were examined with a Zeiss LSM 710 confocal microscope (Carl Zeiss Microlmaging GmbH) equipped with an Ar-Laser Multiline (458/488/514 nm), a DPSS-561 10 (561 nm), a Laser diode 405-30 CW (405 nm), and a HeNe-laser (633 nm). The objective used was a Zeiss plan-Apochromat 63×NA/1.4 oil DICII. Image processing and analysis were performed with basic software ZEN 2011 (Carl Zeiss Microlmaging GmbH) and Imaris 7.7.2 (Bitplane AG). Confocal z-stacks were deconvolved using Huygens Essential 14.06 (Scientific Volume Imaging b.v.), and visualized with Imaris.
For the PIKfyve inhibition experiments, fresh NK cells were left either untreated or cultured in RPMI/10% FCS, supplemented with 1 μM Vacuolin-1, YM201636 or Apilimod at 37° C. in 5% CO2 overnight. Cells were surface-stained with anti-human HLA-ABC antibody (W6/32, BioLegend) prior to settlement on CelITak-coated slides for 20 minutes, followed by fixation with 4% paraformaldehyde. […]

As to `Nc1ccc(C(=O)Nc2cccc(-c3nc(N4CCOCC4)c4oc5ncccc5c4n3)c2)cn1` [YM201636], the secretory lysosome size result is listed as “increase in secretory lysosome size”.
